{"source": "PubChem BioAssay AID493014", "about": "(National Center for Advancing Translational Sciences (NCATS), 2011)", "note": "Out of some 340,000 compounds screened, about 170 (0.05%) were called active. Inconclusive results, whose numbers are uncertain, are shown with a selection of clear calls. The call rests on the fitted dose curve; in most records, active means well fitted inhibition curve with a large enough effect in the signal ratio, with a control signal flat (not every such curve was filed as active); inconclusive means small, poorly fitted or top-dose-only effect, or effect the other way, or a change in a side signal; inactive means flat fitted curve, though single readings scatter; the % refers to the signal ratio. A potency beside an inconclusive call is a rough fit, not a confirmed value. Potency means the concentration at half of the fitted maximal effect.", "data": [{"test": "qHTS Assay to Find Inhibitors of Chronic Active B-Cell Receptor Signaling;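 on activity change, negative = inhibition: plate controls were basal doxycycline-induced cells for no effect and cells given 10 µM MG132 for full effect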", "settings": "ABC-DLBCL IkBa-CBG/CBR reporter, luminescence ratio (green luciferase fused to IkBa over red control in TMD8 lymphoma cells), 4 h; activity change, negative = inhibition: at 46.1 µM (top of the series)", "summary_of_the_method": "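TMD8 ABC-DLBCL cells carrying doxycycline-inducible green luciferase fused to IkappaBalpha plus unfused red luciferase were exposed to compounds (up to 46 uM) for 4 hrs at 37C. Activity came from the overlap-corrected green/red luminescence ratio.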", "values": [{"smiles": "O=C(Nc1ccccc1)Nc1ccccc1NS(=O)(=O)c1cccs1", "activity change, negative = inhibition": "inconclusive: 10.6%"}, {"smiles": "CC(C)(C)c1cc(C(=O)NCCN2CCCC2)cc(C(C)(C)C)c1", "activity change, negative = inhibition": "inactive: -7.12%"}, {"smiles": "O=C1CN(C(=O)c2c(F)cccc2F)C(c2ccccc2)c2cc(Br)ccc2N1", "note": "(stereo not drawn)", "activity change, negative = inhibition": "inconclusive: -1.15%"}, {"smiles": "O=S(=O)(CCN1CCN(C(c2ccccc2)c2ccccc2)CC1)C(F)(F)F", "Potency": "inconclusive: 35.5 µM [falling, single point]"}, {"smiles": "CCC(=O)N1CCN(c2ccc(NC(=O)COc3ccc(CC)cc3)cc2)CC1", "activity change, negative = inhibition": "inconclusive: 9.92%"}, {"smiles": "COc1cc(NC(=O)Nc2cccc(Cl)c2)c(OC)cc1NC(=O)CN1CCCCC1", "activity change, negative = inhibition": "inconclusive: 1.72%"}, {"smiles": "COc1ccc(/C=C/C(=O)N2CCCc3ccccc32)cc1", "activity change, negative = inhibition": "inconclusive: -10.2% [cytotoxic]"}, {"smiles": "Cc1nnc2ccc(-c3cccc(NS(=O)(=O)c4ccccc4[N+](=O)[O-])c3)nn12", "Potency": "inconclusive: 4.61 µM [falling, single point]"}, {"smiles": "O=C(Nc1ccccc1)c1cc2ccccc2c(=O)s1", "activity change, negative = inhibition": "inconclusive: -13.5%"}, {"smiles": "Cc1cc(NC(=O)NC(=O)c2ccc(F)cc2F)n[nH]1", "activity change, negative = inhibition": "inconclusive: 442%"}, {"smiles": "COc1ccc(N2CCN(C(=O)CSc3nnc(-c4cc5ccccc5cc4O)n3C)CC2)cc1", "activity change, negative = inhibition": "inconclusive: -11.4%"}, {"smiles": "CCN(CC)S(=O)(=O)c1cccc(-c2nnc(SCCOc3ccccc3)o2)c1", "activity change, negative = inhibition": "inactive: -10%"}, {"smiles": "CCOc1cc(/C=C/c2ccc3cccc([N+](=O)[O-])c3n2)ccc1O", "Potency": "inconclusive: 23.1 µM [falling, partial curve, poor fit]"}, {"smiles": "O=C1C2=C(C(=O)c3ccccc31)C1O[C@](c3ccsc3)(Cc3ccccc31)O2", "activity change, negative = inhibition": "inactive: 19.1% [at 9.22 µM]"}, {"smiles": "Cc1cc2c(cc1S(=O)(=O)CCC(=O)N(C)C1CCCCC1)OCC(=O)N2", "activity change, negative = inhibition": "inconclusive: 12.7%"}, {"smiles": "CCCn1c(=O)c2ccccc2n2c(SCCOc3ccccc3F)nnc12", "activity change, negative = inhibition": "inconclusive: 2.36%"}, {"smiles": "O=C(N/N=C\\C=C\\c1ccc2c(c1)OCO2)c1ccc(F)cc1", "Potency": "inconclusive: 22.4 µM [falling, single point]"}, {"smiles": "CCN1C/C(=C/c2ccc(OC)c(O)c2)C(=O)/C(=C/c2ccc(OC)c(O)c2)C1", "Potency": "inconclusive: 3.98 µM [cytotoxic, partial curve, poor fit]"}, {"smiles": "CCN1CCN(Cc2ccc(NC(=O)c3ccc(C)c(NC(=O)C(=O)c4c[nH]c5ccccc45)c3)cc2C(F)(F)F)CC1", "Potency": "inconclusive: 3.98 µM [falling, single point]", "activity change, negative = inhibition": "inconclusive: 4.32%"}, {"smiles": "NCCCCCNC(=O)c1[nH]cnc1C(=O)N[C@@H](Cc1ccccc1)C(=O)OCc1ccccc1", "activity change, negative = inhibition": "inactive: 1.89%"}, {"smiles": "Cc1ccc(C(=O)CSc2nnc(-c3cccs3)n2C)o1", "activity change, negative = inhibition": "inconclusive: 6.78%"}, {"smiles": "CC(=O)Nc1ccc(C(=O)Nc2ccc3c(c2)OCO3)cc1", "activity change, negative = inhibition": "inactive: -0.0736%"}, {"smiles": "COc1cc(/C=N/NC(=O)c2cccnc2)ccc1OS(=O)(=O)c1cc(C)ccc1C", "activity change, negative = inhibition": "inconclusive: -10.4%"}, {"smiles": "CCOC(=O)c1c(-c2ccccc2)oc2ccc(O)c(CN(C)C)c12", "activity change, negative = inhibition": "inconclusive: -1.4%"}, {"smiles": "NC(=O)c1cc([N+](=O)[O-])ccc1NCc1ccc(C(=O)O)cc1", "Potency": "inconclusive: 20.6 µM [falling, single point]"}, {"smiles": "CC(C)c1csc2nc3n(c(=O)c12)CCCCC3", "activity change, negative = inhibition": "inconclusive: 5.9%"}, {"smiles": "CCc1ccc(CN(C)C(=O)CCc2nc3ccccc3n(-c3ccc(OC)cc3)c2=O)cc1", "Potency": "inconclusive: 15.8 µM [falling, partial curve, poor fit]"}, {"smiles": "Cc1cc(C)nc(N/N=C/C2=C(O)CC(c3ccc(F)cc3)CC2=O)n1", "note": "(stereo not drawn)", "activity change, negative = inhibition": "inconclusive: 7.63%"}, {"smiles": "O=c1[nH]c(/C=C/c2ccccn2)nc2ccccc12", "Potency": "inconclusive: 31.6 µM [falling, single point]"}, {"smiles": "O=C(CSCc1cnn(-c2ccccc2)c1-n1cccc1)NCc1ccc2c(c1)OCO2", "Potency": "inconclusive: 10.3 µM [rising, partial curve, poor fit]"}, {"smiles": "O=C(O)CC1(CC(=O)NCc2csc(-c3cccs3)n2)CCCCC1", "activity change, negative = inhibition": "inactive: -3.27%"}, {"smiles": "Cc1cc(C(=O)COc2ccc(Cl)cc2Br)c(C)n1C", "activity change, negative = inhibition": "inconclusive: 8.32%"}, {"smiles": "CCOC(=O)c1sc2nc(Cc3ccc(Cl)cc3)[nH]c(=S)c2c1C", "activity change, negative = inhibition": "inactive: 5.34%"}, {"smiles": "COc1ccc(S(=O)(=O)N(CC(=O)N2CCN(c3ccccc3OC)CC2)c2ccccc2)cc1", "activity change, negative = inhibition": "inactive: -2.87%"}, {"smiles": "N#C/C(=C\\c1ccncc1)c1ccccn1", "Potency": "inconclusive: 12.6 µM [falling, partial curve, poor fit]"}, {"smiles": "COc1cc2ccccc2nn1", "activity change, negative = inhibition": "inactive: -2.69%"}, {"smiles": "Cc1ccc2c(C)c(C(=O)N(Cc3ccccc3)C3CCS(=O)(=O)C3)oc2c1", "note": "(stereo not drawn)", "activity change, negative = inhibition": "inconclusive: -2.79%"}, {"smiles": "O=C1c2cccc3c([N+](=O)[O-])ccc(c23)C(=O)N1c1ccccn1", "activity change, negative = inhibition": "inconclusive: 4.35%"}, {"smiles": "COC(=O)c1cccc(NC(=O)CSc2nnc(COc3cccc(C)c3)n2C)c1", "activity change, negative = inhibition": "inconclusive: -2.22%"}, {"smiles": "COc1cc(/C=N/NC(=O)NC23CC4CC(CC(C4)C2)C3)ccc1O", "Potency": "inconclusive: 28.2 µM [falling, single point]"}, {"smiles": "CN(C)CCNC(=O)c1cccc(S(=O)(=O)Nc2ccc(F)cc2)c1", "activity change, negative = inhibition": "inconclusive: -4.35%"}, {"smiles": "S=c1ccc2ccccc2[nH]1", "Potency": "inconclusive: 22.4 µM [falling, single point]"}, {"smiles": "O=c1c2ccccc2nnn1COc1cccc(Cl)c1", "activity change, negative = inhibition": "inconclusive: -28.5%"}, {"smiles": "CN1c2ccccc2N(C)C1(C)c1cccc2ccccc12", "activity change, negative = inhibition": "inactive: 5.25%"}, {"smiles": "O=C(O)C1CCCCN1S(=O)(=O)c1ccccc1", "note": "(stereo not drawn)", "activity change, negative = inhibition": "inconclusive: 0.752%"}, {"smiles": "NC(=O)c1cc(-c2ccccc2)nc(N2CCOCC2)n1", "Potency": "inconclusive: 5.17 µM [falling, partial curve]"}, {"smiles": "O=C(NC(=O)c1ccccc1)Nc1ccccc1", "Potency": "inconclusive: 2.82 µM [falling, partial curve, poor fit]"}, {"smiles": "O=C(NC(=S)Nc1ccc(Br)cn1)c1cccs1", "Potency": "inconclusive: 14.1 µM [falling, partial curve, poor fit]"}, {"smiles": "COc1ccc2cc(/C=N/NC(=O)CN(c3ccccc3)S(=O)(=O)c3ccccc3)c(Cl)nc2c1", "activity change, negative = inhibition": "inconclusive: -1.06%"}, {"smiles": "CCCNC(=O)Nc1nnc(C2CC2)s1", "activity change, negative = inhibition": "inconclusive: 17.3%"}, {"smiles": "COc1ccc(/C(C#N)=C/c2ccccn2)cc1", "Potency": "inconclusive: 35.5 µM [falling, single point]"}, {"smiles": "O=C(NC(NC(=S)Nc1cc(Cl)ccc1Cl)C(Cl)(Cl)Cl)c1ccco1", "note": "(stereo not drawn)", "activity change, negative = inhibition": "inconclusive: 4.92%"}, {"smiles": "CNC(=O)c1ccc(NC(=O)c2ccc3c(=O)n4c(nc3c2)CCC4)cc1", "activity change, negative = inhibition": "inconclusive: 4.22%"}, {"smiles": "CCCCc1cc(=O)oc2cc(C)cc(OC(C)C(=O)NCC3CCC(C(=O)O)CC3)c12", "note": "(stereo not drawn)", "Potency": "inconclusive: 3.16 µM [falling, single point]"}, {"smiles": "CCOC(=O)c1ccc(N/C=C/C(=O)c2ccccc2)cc1", "Potency": "inconclusive: 35.5 µM [falling, single point]"}, {"smiles": "COCCC(=O)N1CCC(Oc2ccc(C(=O)NC3CCCCC3)cc2)CC1", "activity change, negative = inhibition": "inactive: -0.241%"}, {"smiles": "NNc1nc(NCc2ccccc2)nc(N2CCOCC2)n1", "Potency": "inconclusive: 20.6 µM [falling, single point]"}, {"smiles": "Cc1ccccc1Cn1c(=N)n(CC(=O)c2ccco2)c2ccccc21", "activity change, negative = inhibition": "inconclusive: -0.325%"}, {"smiles": "COc1ccc(OC)c2sc(NC(=O)c3ccc(S(=O)(=O)N4CCOCC4)cc3)nc12", "activity change, negative = inhibition": "inconclusive: 15.3%"}, {"smiles": "CCC(=O)N1CCC(c2ccc(OC)cc2)=N1", "activity change, negative = inhibition": "inconclusive: 7.99%"}, {"smiles": "CCOC(=O)COc1ccc(S(=O)(=O)NCCC2=CCCCC2)cc1", "Potency": "inconclusive: 16.4 µM [falling, single point]"}, {"smiles": "O=C(CCn1c(=S)[nH]c2ccccc2c1=O)Nc1cccc(Cl)c1", "activity change, negative = inhibition": "inconclusive: 7.08%"}, {"smiles": "CCc1nc2ccc(C(=O)NCc3ccc(OC)c(OC)c3)cc2nc1CC", "activity change, negative = inhibition": "inconclusive: 1.15%"}, {"smiles": "N#CCC(=O)Nc1ccc(C(=O)OCC(=O)NCc2ccc3c(c2)OCO3)cc1", "Potency": "inconclusive: 16.4 µM [falling, single point]"}, {"smiles": "CC1(C)Cc2c(c(N3CCOCC3)nc3sc(C(=O)Nc4ccc(Cl)cc4)c(N)c23)CO1", "Potency": "inconclusive: 14.1 µM [falling, partial curve, poor fit]"}, {"smiles": "O=Cc1cccn1-c1ccc2ccccc2c1", "activity change, negative = inhibition": "inactive: -13.3%"}, {"smiles": "CCN1CCN(c2ccc(S(=O)(=O)N3CCOCC3)cc2NC(=O)c2ccccc2SC)CC1", "activity change, negative = inhibition": "inconclusive: -0.191%"}, {"smiles": "CCCn1c(N)c(N(CCOC)C(=O)c2ccc(N(C)S(=O)(=O)c3ccc(C)cc3)cc2)c(=O)[nH]c1=O", "activity change, negative = inhibition": "inconclusive: -12.8%"}, {"smiles": "CCCCC(=O)N1CCCC(c2nc(-c3cccc(OC)c3)no2)C1", "note": "(stereo not drawn)", "activity change, negative = inhibition": "inconclusive: -12.3%"}, {"smiles": "CCN(CC(=O)Nc1ccc(NC(C)=O)cc1)CC(=O)Nc1cccc(Cl)c1", "Potency": "inconclusive: 11.2 µM [falling, single point]"}, {"smiles": "Cc1cc(/C=C2/C(=O)N(C)C(=S)N2C)c(C)n1C1CC1", "activity change, negative = inhibition": "inactive: -2.61%"}, {"smiles": "CC(=O)OC1COC(N2CCc3cc(Br)c([N+](=O)[O-])cc32)C(OC(C)=O)C1OC(C)=O", "note": "(stereo not drawn)", "activity change, negative = inhibition": "inconclusive: -11.5%"}, {"smiles": "COC(=O)CNC(=O)c1cccc(-c2ccc(OC)cc2)c1", "activity change, negative = inhibition": "inconclusive: -0.884%"}, {"smiles": "COC(=O)CC1C(=O)NCCN1C(=O)c1ccc([N+](=O)[O-])cc1", "note": "(stereo not drawn)", "activity change, negative = inhibition": "inactive: -0.421%"}, {"smiles": "CCCC1=NN(c2ccc([N+](=O)[O-])cc2)C(=O)/C1=C/N(C)C", "Potency": "inconclusive: 25.9 µM [falling, single point]"}, {"smiles": "CCCn1c(-c2ccc(OC)cc2)nc2c(=O)n(C)c(=O)[nH]c21", "activity change, negative = inhibition": "inconclusive: 16.9%"}, {"smiles": "CC1(O)CC(=O)N(c2ccccc2)O1", "note": "(stereo not drawn)", "Potency": "inconclusive: 20 µM [falling, single point]"}]}]}
